# Measured values reported in publication doi:10.1101/2024.10.10.617623.
# Results are given in words; binding and its absence hold for the method and conditions named. Some binding calls cover weakened binding; strength is not graded here.
# T1: Streptococcus pyogenes type II-A Cas2 (Streptococcus pyogenes) (UniProt Q99ZW0)
# T1 sequence: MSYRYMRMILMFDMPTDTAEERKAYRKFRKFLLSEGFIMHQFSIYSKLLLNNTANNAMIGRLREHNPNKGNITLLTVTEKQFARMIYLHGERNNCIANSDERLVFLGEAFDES
# B1: Streptococcus pyogenes type II-A Cas1 R5K (enzyme, UniProt Q99ZW1 1-289)
# chain: MAGWKTVVVNTHSKLSYKNNHLIFKDAYKTELIHLSEIDILLLETTDIVLSTMLVKRLVDENVLVIFCDDKRLPTAMLMPFYGRHDSSLQLGKQMSWSETVKSQVWTTIIAQKILNQSCYLGACSYFEKSQSIMDLYHGLENFDPSNREGHAARIYFNTLFGNDFSRDLEHPINAGLDYGYTLLLSMFAREVVVSGCMTQFGLKHANQFNQFNFASDIMEPFRPLVDKIVYENRNQPFPKIKRELFTLFSDTFSYNGKEMYLTNIISDYTKKVVKALNNEGKGVPEFRI
# Molecular target: T1, Streptococcus pyogenes type II-A Cas2 (Streptococcus pyogenes)
# Test: SEC
binder,measurement,value
B1,binding,binds
